Data as given in PubChem BioAssay AID1259284 (Sanger Institute, 2017)

Screen: 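Kinase knock-downs that cut colorectal cancer cell growth alone or with targeted drugs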 (primary screen)
Cells: SW48 human colorectal cancer cells
Reagent: siRNA pool against human genes
Conditions: anchor drug BYL719 at 1 µM, cetuximab at 5 µg/ml or trametinib at 10 nM, or DMSO vehicle alone
Detection: 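Viability scaled to non-targeting control pool, robust z-score from controls, and synergy scores for each drug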
Reading the numbers: robust z-score, no drug: higher = more cells survive knock-down; viability, no drug: higher = more viable cells; synergy with BYL719 and synergy with trametinib and synergy with cetuximab: higher = stronger combined killing with drug
Rule for the call: 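Called essential when the robust z-score of viability without drug falls below -3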
Meaning of the calls: active = essential without drug; inactive = no change without drug
The whole screen tested 794 reagents; below is a part drawn at random. Of all reagents, 16 (2%) got an active call. 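Calls concern knock-down without drug only; drug synergy was judged apart, with scores above 0.15 taken as synergy.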 No viability above 1 is reported: the scale is capped. No sequences are given here. The record does not give: the amount of reagent, the time to read-out.

no.	gene	PubChem SID	robust z-score, no drug	viability, no drug (fraction of control)	synergy with BYL719	synergy with trametinib	synergy with cetuximab	Outcome
1	PI4KA	SID135621251	0.426	1	-0.112	-0.179	-0.0396	inactive
2	MAPK1	SID152148532	-2.87	0.717	-0.0832	-0.132	-0.0926	inactive
3	CDKL4	SID135624323	0.426	1	-0.0582	0.197	0.0147	inactive
4	DSTYK	SID152147164	0.426	1	-0.182	-0.094	-0.00433	inactive
5	CDK18	SID56478887	-1	0.878	-0.283	-0.0108	-0.17	inactive
6	GUCY2F	SID152150427	0.426	1	-0.145	-0.0765	-0.0043	inactive
7	SOX9	SID134325081	0.426	1	-0.367	-0.0571	-0.165	inactive
8	MAPK7	SID56478666	0.426	1	-0.305	-0.22	-0.165	inactive
9	TRIB2	SID56479059	0.162	0.977	0.0959	0.0994	0.11	inactive
10	CSF1R	SID152152485	-3.37	0.675	0.0501	0.164	0.0371	active
11	CHD4	SID152156048	-3.51	0.663	-0.0645	0.1	0.173	active
12	KMT2B	SID134314396	0.426	1	-0.166	-0.0181	-0.0383	inactive
13	CUL1	SID134310265	0.426	1	-0.225	-0.205	-0.165	inactive
14	EPHB4	SID152156322	0.426	1	-0.333	-0.25	-0.165	inactive
15	PRKX	SID152149946	0.426	1	-0.0971	-0.124	-0.000784	inactive
16	MARK1	SID152146970	0.121	0.974	0.00917	-0.0409	0.202	inactive
17	ACSL6	SID152156030	-0.324	0.936	-0.0113	0.0395	0.0942	inactive
18	SIK3	SID135620886	0.426	1	0	-0.0993	-0.0385	inactive
19	NUCKS1	SID152150801	0.426	1	-0.266	-0.0846	-0.144	inactive
20	CASK	SID56479000	0.426	1	0.01	-0.0287	0.0303	inactive
21	IP6K1	SID135621239	0.426	1	-0.216	-0.107	-0.115	inactive
22	PRKCB	SID56478724	0.426	1	-0.0379	0.00669	-0.00149	inactive
23	SCYL3	SID56479033	0.426	1	-0.0579	-0.0783	0.0167	inactive
24	VRK3	SID135620981	0.426	1	-0.204	-0.374	-0.165	inactive
25	CSNK1G1	SID152156369	0.426	1	-0.281	-0.13	-0.165	inactive
26	PRKAR1B	SID152149404	-1.83	0.807	-0.0576	-0.0793	-0.106	inactive
27	PI4K2B	SID56479132	0.426	1	-0.167	-0.161	-0.114	inactive
28	TP53BP1	SID134309949	0.426	1	-0.147	0.0431	0.0344	inactive
29	BRD2	SID135620911	0.426	1	-0.29	-0.244	-0.133	inactive
30	GRK6	SID135620853	-1.07	0.872	-0.0556	-0.039	-0.111	inactive
31	UCK1	SID56478768	0.426	1	0.0368	-0.135	-0.0977	inactive
32	PRPS1	SID56479145	0.426	1	-0.0341	0.0207	-0.165	inactive
33	IRAK3	SID56478864	-0.923	0.884	0.0913	0.136	0.16	inactive
34	RIOK2	SID134310711	0.426	1	-0.155	-0.133	-0.0805	inactive
35	PIK3C2B	SID56479135	0.426	1	-0.185	-0.0852	-0.165	inactive
36	MAP3K6	SID56478746	0.426	1	-0.216	-0.0916	-0.0923	inactive
37	BMX	SID152147462	0.426	1	-0.249	-0.166	-0.144	inactive
38	FN1	SID134314553	0.426	1	-0.167	-0.17	-0.165	inactive
39	ERBB3	SID135620617	0.426	1	-0.254	-0.152	-0.0941	inactive
40	NME3	SID135621244	0.226	0.983	0.008	-0.105	-0.0464	inactive
41	SGK3	SID56478777	0.426	1	-0.14	-0.0842	-0.0814	inactive
42	EEF2K	SID152154873	0.426	1	-0.181	-0.0837	-0.0872	inactive
43	MELK	SID56478756	0.426	1	-0.19	-0.165	-0.0692	inactive
44	PI4KB	SID135621252	0.426	1	-0.32	-0.154	-0.165	inactive
45	PLK2	SID56478648	0.426	1	-0.167	-0.0328	-0.108	inactive
46	MARK3	SID56478669	-0.624	0.91	-0.16	-0.0192	0.0609	inactive
47	PLK4	SID152155543	0.426	1	0.0201	-0.00429	0.034	inactive
48	BPTF	SID152156181	0.426	1	-0.2	0.167	-0.165	inactive
49	FN3KRP	SID56479164	-1.27	0.855	-0.124	-0.0145	-0.0456	inactive
50	DLG1	SID152148481	-0.105	0.954	-0.192	-0.0592	0.00817	inactive
51	DGKH	SID134311961	-1.6	0.826	-0.205	-0.122	-0.139	inactive
52	BMAL1	SID134314841	-2.05	0.788	-0.0297	0.138	-0.0774	inactive
53	PBK	SID56479058	0.118	0.974	-0.0135	-0.0154	-0.102	inactive
54	MATK	SID152153842	0.426	1	-0.359	-0.0598	-0.0768	inactive
55	PDK1	SID56478951	0.426	1	-0.0831	0.00926	-0.0981	inactive
56	TPK1	SID135621256	0.426	1	0.0527	0.0601	0.163	inactive
57	TPD52L3	SID56479192	0.426	1	-0.21	-0.105	-0.0631	inactive
58	CDK4	SID56478598	0.25	0.985	-0.18	-0.2	-0.175	inactive
59	GRK7	SID135620854	0.426	1	-0.0586	0.109	0.0769	inactive
60	AURKB	SID152151121	-1.59	0.827	0.0173	-0.024	-0.00562	inactive
61	LTK	SID135620624	0.426	1	-0.148	-0.131	-0.165	inactive
62	CSNK2A1	SID135620685	0.426	1	-0.261	-0.341	-0.165	inactive
63	MSR1	SID152150198	-0.164	0.949	0	-0.0284	-0.00285	inactive
